Some of the results follow. Single values are uncertain, as repeats are few or missing.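 Cells were imaged in 1,536-well plates, and nuclei stained with an antibody against cleaved PARP were counted against all DNA-stained nuclei to give the apoptosis fraction. Screening doses were chosen to leave most cells alive, and resting and induced cleaved-PARP levels differ strongly between cell lines.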
Tests used:
Assay in all cases: cleaved PARP positive nuclei fraction relative to DMSO control; melanoma cells; higher = more apoptosis
Settings in all cases: library dose: low library concentration; 72 h
501Mel = tested on: 501Mel
A101D = tested on: A101D
A2058 = tested on: A2058
A375 = tested on: A375
C32 = tested on: C32
CBRC008 = tested on: CBRC008 (line from a melanoma biopsy)
CBRC014 = tested on: CBRC014 (line from a melanoma biopsy)
CBRC016 = tested on: CBRC016 (line from a melanoma biopsy)
CBRC017 = tested on: CBRC017 (line from a melanoma biopsy)
CBRC034 = tested on: CBRC034 (line from a melanoma biopsy)
COLO792 = tested on: COLO792
COLO800 = tested on: COLO800
COLO829 = tested on: COLO829
G361 = tested on: G361
IPC-298 = tested on: IPC-298
IST-MEL1 = tested on: IST-MEL1
LB2518-MEL = tested on: LB2518-MEL
LOXIMVI = tested on: LOXIMVI
MEL-HO = tested on: MEL-HO

Row | Structure (SMILES) | cleaved PARP positive nuclei fraction (501Mel) [%] | cleaved PARP positive nuclei fraction (A101D) [%] | cleaved PARP positive nuclei fraction (A2058) [%] | cleaved PARP positive nuclei fraction (A375) [%] | cleaved PARP positive nuclei fraction (C32) [%] | cleaved PARP positive nuclei fraction (CBRC008) [%] | cleaved PARP positive nuclei fraction (CBRC014) [%] | cleaved PARP positive nuclei fraction (CBRC016) [%] | cleaved PARP positive nuclei fraction (CBRC017) [%] | cleaved PARP positive nuclei fraction (CBRC034) [%] | cleaved PARP positive nuclei fraction (COLO792) [%] | cleaved PARP positive nuclei fraction (COLO800) [%] | cleaved PARP positive nuclei fraction (COLO829) [%] | cleaved PARP positive nuclei fraction (G361) [%] | cleaved PARP positive nuclei fraction (IPC-298) [%] | cleaved PARP positive nuclei fraction (IST-MEL1) [%] | cleaved PARP positive nuclei fraction (LB2518-MEL) [%] | cleaved PARP positive nuclei fraction (LOXIMVI) [%] | cleaved PARP positive nuclei fraction (MEL-HO) [%]
1 | Cc1cc(Nc2cc(N3CCN(C)CC3)nc(Sc3ccc(NC(=O)C4CC4)cc3)n2)n[nH]1 [Tozasertib] + OCc1c[nH]c2ccccc12 [Indole-3-carbinol] (first compound 0.006 µM, partner dose 0.8 µM) | 289 | 71 | 83.5 | 53.5 | 83.4 | 172 | 96.8 | 59.7 | 54.3 | 101 | 42.7 | 208 | 119 | 61.6 | 84.6 | 113 | 62.7 | 158 | 47.7
2 | CC[C@]1(O)C[C@H]2CN(CCc3c([nH]c4ccccc34)[C@@](C(=O)OC)(c3cc4c(cc3OC)N(C=O)[C@H]3[C@@](O)(C(=O)OC)[C@H](OC(C)=O)[C@]5(CC)C=CCN6CC[C@]43[C@@H]65)C2)C1 [vincristine] + CCCCCCCCCCCCCCCCCCOP(=O)([O-])OC1CC[N+](C)(C)CC1 [Perifosine] (first compound 0.0001 µM, partner dose 0.4 µM) | 83.5 | 47.3 | 318 | 123 | 87 | 195 | 102 | 201 | 114 | 34.9 | 114 | 71.2 | 178 | 195 | 130 | 131 | 130 | 126 | 201
3 | Cc1cc(Nc2cc(N3CCN(C)CC3)nc(Sc3ccc(NC(=O)C4CC4)cc3)n2)n[nH]1 [Tozasertib] + O=C(Nc1cc(C(F)(F)F)cc(C(F)(F)F)c1)c1cc(Cl)ccc1O [IMD0354] (first compound 0.006 µM, partner dose 0.016 µM) | 78.9 | 206 | 199 | 199 | 91 | 55.4 | 105 | 133 | 64.3 | 51.7 | 39.5 | 93.1 | 120 | 83.7 | 61.9 | 66.9 | 224 | 231 | 120
4 | N#CC[C@H](C1CCCC1)n1cc(-c2ncnc3[nH]ccc23)cn1 [ruxolitinib] + O=C(O)[C@@H]1[O][Sb](=[O])([O][Sb]2(=[O])[O][C@H]([C@H](O)CO)[C@H](O)[C@H](C(=O)O)[O]2)[O][C@H]([C@H](O)CO)[C@@H]1O [stibogluconate] (first compound 1 µM, partner dose 2 µM) | 74 | 304 | 69.2 | 63.8 | 78.7 | 99.4 | 87.3 | 95 | 85 | 124 | 130 | 74.2 | 99.2 | 135 | 87.9 | 68.4 | 78.6 | 163 | 41.2
5 | CCCCCCCCCCCCCCCCCCOP(=O)([O-])OC1CC[N+](C)(C)CC1 [Perifosine] + CS(=O)(=O)CCNCc1ccc(-c2ccc3ncnc(Nc4ccc(OCc5cccc(F)c5)c(Cl)c4)c3c2)o1 [lapatinib] (first compound 0.4 µM, partner dose 0.8 µM) | 63.3 | 79.8 | 116 | 108 | 79.9 | 73 | 88.8 | 20.6 | 72.2 | 47.9 | 114 | 73.6 | 115 | 45 | 42.1 | 49.6 | 191 | 91.3 | 55.1
6 | Cc1cc(Nc2cc(N3CCN(C)CC3)nc(Sc3ccc(NC(=O)C4CC4)cc3)n2)n[nH]1 [Tozasertib] + Nc1ncn([C@H]2C[C@H](O)[C@@H](CO)O2)c(=O)n1 [decitabine] (first compound 0.006 µM, partner dose 0.1 µM) | 89.1 | 110 | 140 | 119 | 83.8 | 215 | 97.8 | 104 | 101 | 97.7 | 31.6 | 117 | 167 | 131 | 131 | 94.5 | 62.3 | 69.5 | 58.5
7 | N#CC[C@H](C1CCCC1)n1cc(-c2ncnc3[nH]ccc23)cn1 [ruxolitinib] + Cc1cn(-c2cc(NC(=O)c3ccc(C)c(Nc4nccc(-c5cccnc5)n4)c3)cc(C(F)(F)F)c2)cn1 [nilotinib] (first compound 1 µM, partner dose 0.2 µM) | 62.7 | 41.8 | 171 | 98.8 | 69.6 | 94.1 | 99.2 | 90.3 | 268 | 149 | 106 | 52.5 | 107 | 177 | 44.6 | 87.6 | 154 | 93.5 | 120
8 | O=c1[nH]nc(Sc2ncc([N+](=O)[O-])s2)n1-c1ccc2c(c1)OCCO2 + Cn1sc(=O)n(Cc2ccccc2)c1=O [TDZD-8] (first compound 0.2 µM, partner dose 0.4 µM) | 99.1 | 127 | 86.9 | 102 | 171 | 88.5 | 105 | 55.9 | 116 | 30.4 | 117 | 80.9 | 125 | 74.7 | 59.1 | 138 | 138 | 98.3 | 92.2
